Binding data for 2 substances are collected here from paper PMC12171025.

Protein sequences, listed by entry. Tags and fused reporters are not part of them. Lines headed by an entry give the natural chain unless they say otherwise; changes in a name come on top.
UniProt Q9BSJ6: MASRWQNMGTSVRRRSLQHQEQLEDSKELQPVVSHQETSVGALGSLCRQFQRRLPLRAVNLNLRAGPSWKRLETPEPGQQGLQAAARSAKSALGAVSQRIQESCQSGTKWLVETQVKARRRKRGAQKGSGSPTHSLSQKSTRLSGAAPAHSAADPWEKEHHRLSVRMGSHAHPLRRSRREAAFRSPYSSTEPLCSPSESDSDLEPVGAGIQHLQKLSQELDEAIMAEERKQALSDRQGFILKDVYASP
UniProt Q15672: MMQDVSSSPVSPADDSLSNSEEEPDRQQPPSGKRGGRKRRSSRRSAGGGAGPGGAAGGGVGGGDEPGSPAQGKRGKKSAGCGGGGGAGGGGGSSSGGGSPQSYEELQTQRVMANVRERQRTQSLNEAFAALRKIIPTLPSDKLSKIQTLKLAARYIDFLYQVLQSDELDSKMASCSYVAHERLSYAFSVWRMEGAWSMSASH
UniProt Q9UNE7: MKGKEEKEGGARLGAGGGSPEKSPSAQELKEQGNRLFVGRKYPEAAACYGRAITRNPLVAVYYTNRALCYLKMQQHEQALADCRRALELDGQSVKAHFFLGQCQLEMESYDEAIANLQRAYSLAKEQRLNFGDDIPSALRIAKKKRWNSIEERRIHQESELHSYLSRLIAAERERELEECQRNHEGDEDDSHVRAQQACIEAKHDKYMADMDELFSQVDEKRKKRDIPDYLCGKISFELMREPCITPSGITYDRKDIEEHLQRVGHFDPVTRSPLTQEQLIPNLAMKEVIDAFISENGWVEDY

No constants are given. Whether binding was seen depends on the method and setting. Binding seen in cells or lysates may run through a third protein. Binding can be weak; no strength is given.

The target in the assay is FAM64A (human (endogenous in A2780)) (UniProt Q9BSJ6). The assay can be described thus: co-IP; A2780 cell lysates (500 ug) in RIPA buffer, overnight at 4°C with anti-FAM64A antibody (2 ug) and protein G agarose beads; IgG as negative control; TWIST1 and STUB1 detected by western blot.

With TWIST1 (from UniProt Q15672 1-202), the binding result was “no binding”.

For “STUB1 (STIP1 homology and U-box containing protein 1) (from UniProt Q9UNE7 1-303) (enzyme)”, the binding result is “binds”.
